The results in this text go back to PubChem BioAssay AID493014 (National Center for Advancing Translational Sciences (NCATS), 2011).

This assay is described as follows: qHTS Assay to Find Inhibitors of Chronic Active B-Cell Receptor Signaling. As to conditions: ABC-DLBCL IkBa-CBG/CBR reporter, luminescence ratio (green luciferase fused to IkBa over red control in TMD8 lymphoma cells), 4 h. In short, it runs like this:
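Cell line TMD8 (human ABC DLBCL), stably expressing tet-inducible CBG68-IkBa fusion and CBR; IMDM/0.5% FBS; cpd up to 46 uM; dox induction, 4 h, 37C/5% CO2; dual luminescence; green/red ratio; MG132 control.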
For orientation: In qHTS, concentration-response curves come from the screen itself.

Setting [1] is: measured here: CBR red luminescence, cell number.
[2] abbreviates: measured here: IkBa-CBG green luminescence.

The list shows a part of the results. Shown are side measurements of this screen, not its main read-out; they come without a call. Most of these compounds were active or inconclusive in the main read-out, so they are no random draw. The note in brackets gives the kind of curve behind each potency; many fits are weak.

As for `O=C(N/N=C/c1ccc(O)c(O)c1)N/N=C/c1ccc(O)c(O)c1`, under setting [1], the concentration at half-maximal activity (AC50) (commonly the concentration at which the activity in the assay is half-maximal) is 17.8 µM [falling, single point].

For `Nc1nnc(CC(=O)N/N=C/c2ccc(-c3ccccc3)o2)s1`, the half-maximal activity concentration (AC50) under setting [2] is 20.6 µM [rising, partial curve, poor fit].

On to `CCc1[nH]c(=O)c(C#N)c2c1COC(C)(C)C2`, for which, under setting [1], the concentration at half-maximal activity (AC50) is 1.64 µM [falling, full curve, poor fit].

As to `CC(C)Nc1ncnc2c1cnn2-c1ccc(Cl)cc1`, the concentration at half-maximal activity (AC50) under setting [1] was 14.6 µM [falling, partial curve].

Consider `CCC(Sc1nc2n[nH]c(C)c2c(=N)n1-c1cccc(Cl)c1C)C(=O)N(CC)CC` (configuration not stated), for which, under setting [1], the AC50 is 0.794 µM [rising, full curve, poor fit].

Take `C=C(C)C(=O)OCC(C)C`: under setting [1], the half-maximal activity concentration (AC50) is 18.4 µM [rising, partial curve, poor fit].

Turning to `O=C(NC1CCCCC1)c1cccnc1Sc1ccccc1Cl`, under setting [1], the half-maximal activity concentration (AC50) is 3.16 µM [falling, single point].

On to `Cc1occc1C(=O)N/N=C/c1cnn(C)c1C`, for which the AC50 under setting [1] was 23.1 µM [falling, single point].

With `Cc1c(NC(=O)c2cccc(NC(=O)c3ccco3)c2)cccc1C(=O)O`, under setting [1], the AC50 is 6.51 µM [falling, partial curve, poor fit].

On to `CCNC(=S)N1CCN(c2nc(CC)nc3sc4c(c23)CCCC4)CC1`, for which the half-maximal activity concentration (AC50) under setting [1] was 4.47 µM [falling, partial curve].

For `CCOC(=O)C1(Cc2ccc(Cl)cc2)CCN(C(=O)C2=NNC(=O)CC2)CC1`, under setting [1], the AC50 was 7.08 µM [rising, partial curve].

Turning to `Cc1ccc(S(=O)(=O)Nc2ccccc2N2CCCCC2)cc1`, the AC50 under setting [1] is 0.13 µM [falling, full curve, poor fit].

On to `Cc1ccc(CSc2nnc(-c3ccccn3)n2C)cc1`, for which the AC50 under setting [1] is 3.98 µM [rising, full curve, poor fit].

For the compound `CC1CCCN(c2nc3ccsc3c(=O)s2)C1` (configuration not stated), under setting [1], the AC50 is 6.51 µM [falling, single point].

As to `O=C(NNC(=S)Nc1ccccc1)c1ccc2ncccc2c1`, under setting [1], the AC50 is 10 µM [falling, partial curve].

For `Cn1c(-n2c(CCCN3C(=O)c4ccccc4C3=O)nc3ccccc3c2=O)nc2ccccc21`, the AC50 under setting [1] was 2 µM [falling, full curve].

As for `COC(=O)c1ccccc1N=Nc1c(C)noc1C`, under setting [1], the AC50 is 3.16 µM [falling, full curve, poor fit].

Consider `NC(=O)C1CN(S(=O)(=O)c2ccc(Cl)cc2F)c2ccccc2O1` (configuration not stated), for which the half-maximal activity concentration (AC50) under setting [1] was 0.112 µM [falling, full curve, poor fit].

In the case of `CCc1nn(CCCC(=O)NCc2ccco2)c(=O)c2cc3occc3n12`, the AC50 under setting [1] was 20 µM [rising, partial curve, poor fit].

Consider `Cc1ccc(C(=O)NCC(=O)NCC(=O)OCC(=O)c2cccs2)cc1`, for which the half-maximal activity concentration (AC50) under setting [1] was 18.4 µM [rising, single point].

With `COc1ccc(N2CCN(C(c3cccs3)C(C)NC(=O)c3ccc4c(c3)OCO4)CC2)cc1` (configuration not stated), the AC50 under setting [1] is 35.5 µM [rising, single point].

`CC(C)c1ccc(N(C(=O)c2snc(C(N)=O)c2N)C(C(=O)NCC2CCCO2)c2ccc(N(C)C)cc2)cc1` (configuration not stated): the half-maximal activity concentration (AC50) under setting [1] is 2.24 µM [falling, full curve, poor fit].

For `COc1ccc(C(=O)N[C@H](C(=O)OCC(=O)NC(=O)c2cccn2C)C(C)C)cc1`, under setting [1], the AC50 was 7.31 µM [falling, partial curve].

As for `O=[N+]([O-])c1cc(F)c2cccnc2c1O`, the concentration at half-maximal activity (AC50) under setting [2] was 10 µM [falling, partial curve].

As to `Cc1ccc2nc(-c3ccc4c(c3)NC(=O)CO4)cn2c1`, under setting [1], the AC50 was 0.891 µM [rising, full curve, poor fit].

For the compound `COc1ccccc1/C=C/C(=O)Nc1ccc2c(c1)OCCO2`, the AC50 under setting [1] was 20.6 µM [falling, partial curve, poor fit].

With `Cc1nc(NC(=O)CSc2nnc3ccccn23)c(Cl)cc1Cl`, the half-maximal activity concentration (AC50) under setting [1] is 28.2 µM [falling, single point].

Turning to `COc1ccc(-c2nc3c4ccccc4n(CC(=O)N4CCN(c5ccc(F)cc5)CC4)c(=O)n3n2)cc1`, the concentration at half-maximal activity (AC50) under setting [1] is 7.94 µM [falling, single point].

For the compound `O=C(c1cc(-c2ccc3c(c2)OCO3)on1)N1CCN(c2ccccc2)CC1`, under setting [1], the AC50 is 7.94 µM [falling, partial curve].

As to `COc1ccc(CC(NC(C)=O)C(=O)NC2CCN(C(=O)Nc3ccc(C#N)cc3)CC2)cc1OC` (configuration not stated), the concentration at half-maximal activity (AC50) under setting [1] was 3.26 µM [rising, partial curve].

In the case of `CCOCCCNC(=S)NCCNc1nc2c(C)cccc2cc1C#N`, the AC50 under setting [1] is 23.1 µM [falling, single point].

As for `CN1CC2=Cc3ccccc3OC23Oc2ccccc2C=C3C1`, under setting [1], the concentration at half-maximal activity (AC50) was 11.2 µM [falling, partial curve].

With `Cc1ccsc1/C=C1/SC(N2CCOCC2)=NC1=O`, the AC50 under setting [1] was 29.1 µM [rising, single point].

Turning to `O=C(CSc1nc2c([nH]c3ccccc32)c(=O)n1-c1cccc(Cl)c1)N1CCOCC1`, under setting [1], the AC50 is 18.4 µM [falling, single point].

For `COc1ccc(OC)c(C(=O)c2coc3ccc(O)cc23)c1`, the AC50 under setting [1] was 35.5 µM [falling, single point].

Regarding `O=C(COC(=O)c1ccc[nH]c1=O)NCCc1ccc(Cl)cc1Cl`, under setting [1], the AC50 is 14.1 µM [rising, partial curve].

Take `CC(C)(C)NC(=O)C(=O)NNC(=O)c1cccc(F)c1`: the concentration at half-maximal activity (AC50) under setting [1] is 12.6 µM [falling, single point].

Take `CCC(NC(=O)c1ccccc1NC(=O)c1ccccc1)C(=O)O` (configuration not stated): under setting [1], the AC50 was 2.82 µM [falling, full curve].

As to `O=C(O)CSc1nnc(C2CC2)n1-c1ccccc1`, the half-maximal activity concentration (AC50) under setting [1] was 0.231 µM [rising, full curve, poor fit].

As for `Cc1ccc(NC(=O)CC2SC(=O)N(c3ccccc3)C2=O)cc1` (configuration not stated), the AC50 under setting [1] was 6.51 µM [falling, full curve].

Turning to `CCO/N=C1\C(=O)N(c2ccccc2)c2ccccc21`, the AC50 under setting [1] is 11.2 µM [rising, partial curve, poor fit].

Regarding `COCCn1c(=O)[nH]c2cc(C(=O)N3CCN(c4ccccc4F)CC3)ccc2c1=O`, the AC50 under setting [1] was 1.12 µM [falling, full curve, poor fit].
